Results are given in words; binding and its absence hold for the method and conditions named. In cells and extracts the contact can be indirect. Some results given as binding are weak or reduced against the parent protein; the word gives no strength.
Biological target: receptor-interacting serine/threonine-protein kinase 2 (RIPK2), endogenous in HIB 1B cells (mouse (endogenous in HIB 1B)) (UniProt P58801)
Test: co-IP; endogenous proteins; differentiated HIB 1B cells, immunoprecipitation with anti-RIPK2 antibody, immunoblot; lysis buffer with 10 mM N-ethylmaleimide

Protein sequences, listed by entry. Tags and fused reporters are not part of them.
UniProt P58801: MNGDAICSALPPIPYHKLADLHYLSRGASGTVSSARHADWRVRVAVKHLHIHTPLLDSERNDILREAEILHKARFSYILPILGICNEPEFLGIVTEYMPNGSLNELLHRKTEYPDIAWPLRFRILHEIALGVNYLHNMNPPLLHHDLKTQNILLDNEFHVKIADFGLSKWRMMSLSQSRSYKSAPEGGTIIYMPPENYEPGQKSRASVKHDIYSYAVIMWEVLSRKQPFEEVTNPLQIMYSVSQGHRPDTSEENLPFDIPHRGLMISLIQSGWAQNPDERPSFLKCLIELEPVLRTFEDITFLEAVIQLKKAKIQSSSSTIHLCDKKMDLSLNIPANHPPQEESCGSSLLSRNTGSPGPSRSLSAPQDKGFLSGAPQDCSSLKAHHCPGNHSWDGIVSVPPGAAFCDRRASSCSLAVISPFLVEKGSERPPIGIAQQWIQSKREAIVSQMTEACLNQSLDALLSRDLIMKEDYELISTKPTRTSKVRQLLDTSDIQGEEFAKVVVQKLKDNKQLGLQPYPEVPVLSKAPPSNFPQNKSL
UniProt O35099: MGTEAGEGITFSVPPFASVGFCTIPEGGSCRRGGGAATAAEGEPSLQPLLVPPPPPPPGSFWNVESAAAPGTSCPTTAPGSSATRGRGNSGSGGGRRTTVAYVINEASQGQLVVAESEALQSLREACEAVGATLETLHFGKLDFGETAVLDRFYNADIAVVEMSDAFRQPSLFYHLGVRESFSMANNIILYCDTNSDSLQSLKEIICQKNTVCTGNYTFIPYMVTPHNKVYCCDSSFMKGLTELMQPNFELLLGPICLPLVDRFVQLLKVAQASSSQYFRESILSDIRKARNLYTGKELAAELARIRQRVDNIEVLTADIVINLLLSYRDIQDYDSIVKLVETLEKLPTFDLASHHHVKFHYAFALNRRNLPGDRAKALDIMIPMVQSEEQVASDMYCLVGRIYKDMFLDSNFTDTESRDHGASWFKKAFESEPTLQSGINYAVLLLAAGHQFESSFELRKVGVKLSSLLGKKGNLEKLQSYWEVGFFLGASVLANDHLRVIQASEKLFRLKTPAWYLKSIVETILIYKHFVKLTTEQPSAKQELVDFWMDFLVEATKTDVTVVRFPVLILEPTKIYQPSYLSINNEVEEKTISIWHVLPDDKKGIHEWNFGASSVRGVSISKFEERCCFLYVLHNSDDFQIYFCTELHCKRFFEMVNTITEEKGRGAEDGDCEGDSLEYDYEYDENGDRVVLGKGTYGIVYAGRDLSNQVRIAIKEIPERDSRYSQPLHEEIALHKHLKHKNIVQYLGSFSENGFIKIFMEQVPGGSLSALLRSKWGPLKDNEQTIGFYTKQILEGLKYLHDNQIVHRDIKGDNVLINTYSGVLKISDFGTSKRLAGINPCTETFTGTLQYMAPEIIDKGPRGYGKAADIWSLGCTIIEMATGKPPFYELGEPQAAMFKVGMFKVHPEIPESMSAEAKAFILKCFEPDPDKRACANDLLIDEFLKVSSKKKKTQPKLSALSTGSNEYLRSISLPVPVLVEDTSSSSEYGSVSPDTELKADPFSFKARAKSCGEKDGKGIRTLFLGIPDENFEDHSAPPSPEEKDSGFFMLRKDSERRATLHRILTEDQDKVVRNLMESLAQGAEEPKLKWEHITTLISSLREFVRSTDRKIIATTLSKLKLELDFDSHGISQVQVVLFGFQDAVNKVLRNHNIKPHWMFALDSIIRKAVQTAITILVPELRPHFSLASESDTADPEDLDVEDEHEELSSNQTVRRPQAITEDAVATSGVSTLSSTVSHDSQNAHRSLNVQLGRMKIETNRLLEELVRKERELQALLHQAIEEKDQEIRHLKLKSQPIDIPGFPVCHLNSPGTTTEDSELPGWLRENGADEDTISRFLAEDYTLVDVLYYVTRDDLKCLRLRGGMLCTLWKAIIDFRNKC

binding: binds
Substance: apoptosis signal-regulating kinase 1 (ASK1), endogenous in HIB 1B cells (from UniProt O35099 1-1380) (enzyme)
